Data as given in article PMC10173003.
These are yes or no findings as the source states them, for the method shown. In cells and extracts the contact can be indirect. Some binding calls cover weakened binding; strength is not graded here. Tags and fused reporters may be left off the sequences shown. Blank lines part the entries; values can stand above or below the binder they belong to.

Tests used:
[1] = target: T1, cYFP-tagged SOQ1 (full-length SOQ1 in pUC-SPYCE) (Arabidopsis thaliana) (UniProt Q8VZ10); experiment: split reporter; BiFC: nYFP and cYFP fusions (pUC-SPYNE, pUC-SPYCE) cotransformed into Arabidopsis mesophyll protoplasts; confocal microscopy
T1 sequence: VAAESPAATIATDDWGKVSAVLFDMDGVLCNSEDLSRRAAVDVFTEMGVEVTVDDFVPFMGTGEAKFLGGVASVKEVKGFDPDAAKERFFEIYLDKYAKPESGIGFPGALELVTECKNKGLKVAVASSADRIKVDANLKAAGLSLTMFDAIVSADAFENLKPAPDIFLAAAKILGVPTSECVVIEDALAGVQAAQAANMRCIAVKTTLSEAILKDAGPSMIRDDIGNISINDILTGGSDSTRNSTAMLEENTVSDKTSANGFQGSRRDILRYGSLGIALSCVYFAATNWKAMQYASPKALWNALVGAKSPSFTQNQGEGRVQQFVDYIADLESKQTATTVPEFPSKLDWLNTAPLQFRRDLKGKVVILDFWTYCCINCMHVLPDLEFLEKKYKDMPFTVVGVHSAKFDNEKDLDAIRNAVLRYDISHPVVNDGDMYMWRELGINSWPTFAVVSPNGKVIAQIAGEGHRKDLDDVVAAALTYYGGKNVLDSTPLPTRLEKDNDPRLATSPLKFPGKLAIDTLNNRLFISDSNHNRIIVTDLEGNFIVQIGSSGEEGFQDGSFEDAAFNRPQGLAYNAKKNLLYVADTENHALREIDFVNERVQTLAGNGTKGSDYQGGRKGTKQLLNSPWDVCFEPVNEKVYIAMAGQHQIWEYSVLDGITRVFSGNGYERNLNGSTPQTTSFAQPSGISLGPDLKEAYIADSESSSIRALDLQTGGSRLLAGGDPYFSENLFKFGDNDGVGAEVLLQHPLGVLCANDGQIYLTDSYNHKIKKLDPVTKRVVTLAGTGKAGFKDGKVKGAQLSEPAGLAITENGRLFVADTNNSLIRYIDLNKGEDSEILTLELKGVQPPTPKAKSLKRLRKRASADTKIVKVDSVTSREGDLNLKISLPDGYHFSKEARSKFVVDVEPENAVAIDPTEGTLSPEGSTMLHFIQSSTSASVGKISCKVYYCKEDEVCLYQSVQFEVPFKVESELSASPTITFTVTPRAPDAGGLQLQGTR

[2] = target: T2, SOQ1-FLAG (35S:SOQ1-FLAG) (Arabidopsis thaliana) (UniProt Q8VZ10); experiment: co-IP; protoplasts of 25-day-old transgenic plants expressing SOQ1-FLAG, transformed with HHL1-nYFP (MYC tag) or HHL1-NVWA-nYFP; anti-FLAG precipitation as for the seedlings
T2 sequence: T1 sequence

[3] = target: T2, SOQ1-FLAG (35S:SOQ1-FLAG) (Arabidopsis thaliana); experiment: co-IP; total proteins of 10-day-old transgenic seedlings expressing SOQ1-FLAG and purified His-HHL1; anti-FLAG M2 affinity gel, 3 h at 4 °C, IP buffer 10 mM Hepes pH 7.5, 150 mM NaCl, 1 mM EDTA, 10% glycerol, 0.5% Triton X-100; eluted with 3x Flag peptide; blot with anti-HHL1; only the binder purified

binding [1]: no binding
B1: HHL1-NVWA-nYFP (HHL1 lacking the von Willebrand factor type A domain) (protein, UniProt Q8LDL0)
chain: ETAVQQRRMVFVVEAKGKKGMAARQYQRTPPPMPKIEDDGNPRFVIFIRMANVYLWYPLSFRYGYKLVENGNMRAALSTSDVIELPTQDQLKTVFDKVKDYFGDAKESFGKLSSLNPGSDEKTEETSDEKAKA

binding [2]: binds
binding [1]: binds
B2: nYFP-tagged HHL1 (full-length HHL1 in pUC-SPYNE) (protein, UniProt Q8LDL0 40-231)
chain: ETAVQQRRMVFVVEAKGKKGMAARQYQRTPPPMPKIEDDGNPRFVIFIRMANVYLWYPLSIIAGGTTAKIMVAAKDNLLGKYIYKDTIARNIAAVIYRDEKEIQKTAIKQHRVLRTATEFRYGYKLVENGNMRAALSTSDVIELPTQDQLKTVFDKVKDYFGDAKESFGKLSSLNPGSDEKTEETSDEKAKA

binding [3]: binds
B3: purified His-HHL1 fusion protein (protein, UniProt Q8LDL0 40-231)
chain: B2 chain
